Assay results taken from US11358931B2, “Selective androgen receptor modulators (SARMs) and uses thereof” (priority 2007, dated 2022).
For at least one compound, name, drawing or mass did not settle the structure.

Sequences of proteins named here, by UniProt entry; tags and fusion partners are left off.
UniProt P03372, whole entry: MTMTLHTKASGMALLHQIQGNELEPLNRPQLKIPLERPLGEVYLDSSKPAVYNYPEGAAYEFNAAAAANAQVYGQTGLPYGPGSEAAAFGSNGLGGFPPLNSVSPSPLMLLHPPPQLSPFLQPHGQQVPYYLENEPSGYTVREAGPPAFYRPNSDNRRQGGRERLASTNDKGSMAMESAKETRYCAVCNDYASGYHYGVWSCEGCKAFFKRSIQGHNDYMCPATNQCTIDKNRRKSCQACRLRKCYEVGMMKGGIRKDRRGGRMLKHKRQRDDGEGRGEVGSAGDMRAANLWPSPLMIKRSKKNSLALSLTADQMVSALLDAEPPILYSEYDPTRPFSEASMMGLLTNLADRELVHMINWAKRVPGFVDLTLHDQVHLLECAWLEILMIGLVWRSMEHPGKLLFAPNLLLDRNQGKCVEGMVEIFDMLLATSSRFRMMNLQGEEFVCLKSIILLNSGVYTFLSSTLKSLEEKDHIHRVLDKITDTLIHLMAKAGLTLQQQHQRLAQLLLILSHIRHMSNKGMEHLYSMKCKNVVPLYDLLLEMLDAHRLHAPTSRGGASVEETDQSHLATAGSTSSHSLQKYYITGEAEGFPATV

Columns and labels:
Format in all cases: cell-based
hPR-B = target: T1, hPR-B (Homo sapiens, UniProt P06401); experiment: Co-transfection assay, other nuclear receptors: hPR-B; details: relative to reference agonist
T1 construct: expressed in transfected cells
T1 sequence (P06401 1-933): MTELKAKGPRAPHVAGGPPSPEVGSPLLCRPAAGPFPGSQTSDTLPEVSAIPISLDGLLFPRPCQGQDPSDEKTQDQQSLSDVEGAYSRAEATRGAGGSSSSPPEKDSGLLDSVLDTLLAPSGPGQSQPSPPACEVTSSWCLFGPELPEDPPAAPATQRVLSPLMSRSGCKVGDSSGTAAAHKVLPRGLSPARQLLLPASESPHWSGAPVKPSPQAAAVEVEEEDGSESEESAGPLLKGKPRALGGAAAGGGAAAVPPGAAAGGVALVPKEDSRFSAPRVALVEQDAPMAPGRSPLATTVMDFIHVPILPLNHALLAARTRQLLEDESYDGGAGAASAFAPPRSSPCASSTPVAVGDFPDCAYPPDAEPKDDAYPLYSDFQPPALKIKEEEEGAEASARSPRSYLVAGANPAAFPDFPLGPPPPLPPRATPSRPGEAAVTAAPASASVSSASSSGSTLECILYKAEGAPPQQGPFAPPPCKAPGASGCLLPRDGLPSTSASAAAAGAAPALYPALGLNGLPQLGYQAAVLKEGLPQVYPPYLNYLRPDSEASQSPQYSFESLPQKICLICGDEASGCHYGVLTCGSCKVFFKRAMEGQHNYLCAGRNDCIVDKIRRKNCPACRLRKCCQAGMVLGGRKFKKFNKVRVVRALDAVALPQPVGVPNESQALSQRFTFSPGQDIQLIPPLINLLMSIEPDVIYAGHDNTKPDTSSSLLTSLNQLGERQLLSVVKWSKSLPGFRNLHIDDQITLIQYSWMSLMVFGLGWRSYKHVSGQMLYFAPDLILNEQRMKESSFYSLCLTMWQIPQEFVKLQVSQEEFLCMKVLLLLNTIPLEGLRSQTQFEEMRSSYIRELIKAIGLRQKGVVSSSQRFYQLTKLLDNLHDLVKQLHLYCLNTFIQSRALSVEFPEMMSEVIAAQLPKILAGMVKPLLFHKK
Source text: An exemplary co-transfection assay is the luciferase reporter assay (Evans, Science 240: 889-895 (1988), Berger et al., J Steroid Biochem Mol Biol 41: 733-738 (1992)) can be used to establish the ability of a compound of formulae I, II or III to activate (agonist activity) or repress (antagonist activity) the ability of the human androgen receptor (hAR) to induce gene expression. A human cell line containing endogenously expressed hAR (e.g., MDA-MB-453 cells, derived from a human mammary carcinoma, American Tissue Type Culture Collection [ATCC] HTB 131) can be transfected with an androgen responsive luciferase reporter plasmid to measure the level of cross-reactivity of the compound on other nuclear receptors (such as the glucocorticoid receptor (GR), estrogen receptor (ER), mineralocorticoid receptor (MR), progesterone receptor (PR), retinoid receptor (RAR), retinoid X receptor (RXR), peroxisome proliferator activating receptors alpha (PPARα), gamma (PPARγ) and delta (PPARδ), liver X receptor (LXR), farnesyl X receptor (FXR) and the pregnane X receptor (PXR)). In the assay, luciferase reporter plasmids containing the cDNA for firefly luciferase (LUC) under the control of a conditional promoter containing hormone response elements recognized by the appropriate nuclear receptor are co-transfected into cells with the nuclear receptor expression plasmid. […]

hERα = target: T2, hERα (Homo sapiens, UniProt P03372); experiment: Co-transfection assay, other nuclear receptors: hERα
T2 construct: expressed in transfected cells

hLXRα = target: T3, hLXRα (Homo sapiens, UniProt Q13133); experiment: Co-transfection assay, other nuclear receptors: hLXRα; details: relative to reference agonist
T3 construct: expressed in transfected cells
T3 sequence (Q13133 1-447): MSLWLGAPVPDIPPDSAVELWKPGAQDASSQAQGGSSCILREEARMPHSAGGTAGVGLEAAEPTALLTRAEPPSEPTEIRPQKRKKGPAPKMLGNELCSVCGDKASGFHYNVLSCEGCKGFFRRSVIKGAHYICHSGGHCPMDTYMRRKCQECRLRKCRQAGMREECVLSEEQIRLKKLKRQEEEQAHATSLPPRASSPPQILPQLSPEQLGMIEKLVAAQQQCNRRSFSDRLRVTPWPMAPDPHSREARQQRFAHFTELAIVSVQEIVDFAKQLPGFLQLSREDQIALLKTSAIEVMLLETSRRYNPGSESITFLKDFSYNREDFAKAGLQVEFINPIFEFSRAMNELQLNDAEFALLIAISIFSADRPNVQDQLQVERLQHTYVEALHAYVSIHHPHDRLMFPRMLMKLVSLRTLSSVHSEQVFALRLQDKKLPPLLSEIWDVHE

## N#Cc1ccc(N2CCC[C@@H]2[C@@H](O)C(F)(F)F)cc1C(F)(F)F [Compound 102, R,R-4-(2-(1-Hydroxyl-2,2,2-trifluoroethyl)-pyrrolidinyl)-2-trifluoromethyl-benzonitrile]
hPR-B
  agonist activity (transactivation): did not transactivate
hERα; antagonist mode
  antagonism of activation of hERα: but not activation
hERα; relative to reference agonist
  agonist activity (transactivation): did not transactivate
hLXRα
  agonist activity (transactivation): did not transactivate
